These are yes or no findings as the source states them, for the method shown. A result given as binding can be weak or reduced; the word gives no strength. Sequences can lack the tags named with a protein. For part of these data: Binding seen in cells or lysates may run through a third protein.

The target of one assay is T1, MBP-OsSAPK10 (rice) (UniProt Q75H77).
T1 sequence: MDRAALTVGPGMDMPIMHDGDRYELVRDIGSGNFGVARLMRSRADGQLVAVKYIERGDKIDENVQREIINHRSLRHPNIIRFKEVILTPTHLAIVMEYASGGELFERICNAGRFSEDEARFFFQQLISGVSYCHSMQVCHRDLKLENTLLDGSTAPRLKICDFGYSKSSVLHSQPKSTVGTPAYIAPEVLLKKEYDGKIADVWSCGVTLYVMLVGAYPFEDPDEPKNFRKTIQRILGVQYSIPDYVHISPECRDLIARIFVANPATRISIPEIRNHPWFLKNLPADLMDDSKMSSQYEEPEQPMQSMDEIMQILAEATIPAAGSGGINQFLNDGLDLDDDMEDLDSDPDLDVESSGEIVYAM
Description: pull-down.

The target in assay [1] is T2, OsSAPK10 fused with the N-terminus of YFP (BiFC construct) (rice) (UniProt Q75H77).
T2 sequence: T1 sequence
Description: split reporter.

The next assay deals with T3, OsSAPK10-GFP (rice) (UniProt Q75H77).
T3 sequence: T1 sequence
Description: co-IP.

On to GST-OsbZIP86 (rice (Oryza sativa L.)), for which, in the assay with MBP-OsSAPK10 (rice), the binding result was “binds”.
As to “OsbZIP86 fused with the C-terminus of YFP (BiFC construct) (rice (Oryza sativa L.))”, the binding result in assay [1] is given as “binds”.
Consider OsbZIP86-FLAG (rice (Oryza sativa L.)), for which the binding result in the assay with OsSAPK10-GFP (rice) is recorded as “binds”.
